In PubChem BioAssay AID2685 (National Center for Advancing Translational Sciences (NCATS), 2010):
The campaign covered roughly 320,000 compounds. About 2,100 (0.66%) were called active. Calls come from the whole dose curve; as a rule, active = well fitted inhibition curve with a large enough effect in the signal ratio, with a control signal flat (not every such curve was filed as active); inconclusive = small, poorly fitted or top-dose-only effect, or effect the other way, or a change in a side signal; inactive = flat fitted curve, though single readings scatter; the % refers to the signal ratio. Inconclusive results, whose numbers are uncertain, are shown. Potencies of inconclusive entries are doubtful fits and often do not repeat.

assay: qHTS Assay for Lipid Storage Modulators in Drosophila S3 Cells; conditions: BODIPY lipid droplet fluorescence, 18-24 h, cells fed with added oleic acid; lipid storage change, negative = inhibition: at 46.1 µM (top of the series) unless noted
Text: NIH Molecular Libraries Probe Production Centers Network [MLPCN] NIH Chemical Genomics Center [NCGC] MLPCN Grant: 1 R03 MH085686-01 Assay Submitter (PI): Beller, Mathias; Max-Planck-Institut fur Biophysikalische Chemie NCGC Assay Overview: Storing lipids as a reservoir for energy or the anabolism of elementary metabolites is a common feature of probably all cells and is conserved from bacteria to humans. The universal cellular lipid storage organelle is the so-called lipid storage droplet (LD). Although ubiquitous, LDs share a simple structure composed of a hydrophobic core that harbors the storage lipids, which is shielded by a droplet-specific phospholipid monolayer to which proteins are attached. The current model of LD biogenesis involves an incorporation of the lipid core into the membrane leaflets of the endoplasmic reticulum (ER) followed by a subsequent budding-like maturation of a LD, which ultimately pinches off. Once released, LD volume can increase by localized lipogenesis or fusion of existing droplet. Storage lipids are re-mobilized enzymatically by lipase activity. Lipase regulation in the adipocyte is heavily studied and involves multiple components including catecholamine signaling, the LD-associated proteins Perilipin and comparative gene identification (CGI-58) and at least two lipases named hormone sensitive lipase (HSL) and adipocyte triglyceride lipase (ATGL). LD regulation outside of the adipocyte is poorly understood and only few components are known. […]
Triacsin C (Sigma-Aldrich T-4540), an inhibitor of long-chain fatty acyl CoA synthetase that blocks synthesis of triglycerides, was used as a positive control for lipid under-storage. […] Fluorescence was detected by excitation of the fluorophores with a 488-nm laser on an Acumen Explorer (TTP Lab Tech). […] Cells were detected using channel 3 (575-640 nm) with 5-um width and 100-um depth filters. The ratio of the number of objects in PMT channel 2 over the number of objects in PMT channel 3 was also calculated. […]
% is set by controls: 0 for no effect and ±100 for the full control effect; potency is the fitted concentration of half-maximal effect.

Row | Compound | Potency | lipid storage change, negative = inhibition
1 | CC(c1ccccc1)N1C(=O)c2ccc(C(=O)Nc3ccc(Br)cc3C(=O)O)cc2C1=O (stereo not drawn) | inconclusive: 29.1 µM [activator, single point] | 
2 | CCOc1cc(/C=C2\C(=O)N(c3cccc(C(=O)O)c3)N=C2C(F)(F)F)ccc1OCC(=O)Nc1ccccc1OC | inconclusive: 20.6 µM [falling, single point] | 
3 | CCCOc1ccc(C2C(C(=O)c3cc4ccccc4o3)=C(O)C(=O)N2c2cc(C)on2)cc1 (stereo not drawn) |  | inconclusive: 108%
